According to the supplement of paper PMC10849652:
This is one part of the list.

By UniProt entry, the sequences of proteins in these tests, tags left out. Where a name states a change or a piece, a line headed by the entry shows the natural chain unless it says otherwise.
UniProt Q9NXJ5: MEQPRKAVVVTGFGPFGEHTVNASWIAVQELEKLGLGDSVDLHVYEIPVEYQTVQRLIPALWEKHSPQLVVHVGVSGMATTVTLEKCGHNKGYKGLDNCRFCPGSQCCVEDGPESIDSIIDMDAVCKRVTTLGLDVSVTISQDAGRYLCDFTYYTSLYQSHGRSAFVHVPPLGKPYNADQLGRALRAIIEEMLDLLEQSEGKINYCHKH
UniProt Q8IZ21: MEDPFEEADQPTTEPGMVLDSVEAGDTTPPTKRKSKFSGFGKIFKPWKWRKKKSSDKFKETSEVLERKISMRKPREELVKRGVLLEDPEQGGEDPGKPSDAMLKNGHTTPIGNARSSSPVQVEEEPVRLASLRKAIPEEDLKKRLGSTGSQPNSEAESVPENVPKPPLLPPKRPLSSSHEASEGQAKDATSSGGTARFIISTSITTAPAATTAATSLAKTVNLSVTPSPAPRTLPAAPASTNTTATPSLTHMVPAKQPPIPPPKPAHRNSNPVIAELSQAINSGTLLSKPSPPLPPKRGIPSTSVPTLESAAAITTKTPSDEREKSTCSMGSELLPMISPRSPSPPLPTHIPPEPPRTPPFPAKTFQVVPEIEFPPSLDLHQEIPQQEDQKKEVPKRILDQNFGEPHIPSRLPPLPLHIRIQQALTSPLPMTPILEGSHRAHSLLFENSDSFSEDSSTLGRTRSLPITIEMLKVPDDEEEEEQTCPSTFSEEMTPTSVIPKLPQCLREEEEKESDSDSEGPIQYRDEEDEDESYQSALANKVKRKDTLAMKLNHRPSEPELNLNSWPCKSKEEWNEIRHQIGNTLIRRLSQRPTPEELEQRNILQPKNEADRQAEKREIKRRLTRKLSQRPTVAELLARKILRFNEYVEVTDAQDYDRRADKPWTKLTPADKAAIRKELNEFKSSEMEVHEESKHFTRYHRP
UniProt P53609, whole entry, looked up: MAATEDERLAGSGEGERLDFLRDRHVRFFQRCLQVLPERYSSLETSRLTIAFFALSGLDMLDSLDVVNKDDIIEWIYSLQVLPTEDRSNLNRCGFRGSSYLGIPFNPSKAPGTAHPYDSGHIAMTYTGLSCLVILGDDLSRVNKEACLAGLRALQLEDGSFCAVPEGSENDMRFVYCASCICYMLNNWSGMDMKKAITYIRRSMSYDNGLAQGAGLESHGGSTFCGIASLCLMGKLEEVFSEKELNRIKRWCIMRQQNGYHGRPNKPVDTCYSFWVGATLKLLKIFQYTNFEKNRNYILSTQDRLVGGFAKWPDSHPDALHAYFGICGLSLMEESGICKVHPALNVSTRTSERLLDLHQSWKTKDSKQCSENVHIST
UniProt P0C869: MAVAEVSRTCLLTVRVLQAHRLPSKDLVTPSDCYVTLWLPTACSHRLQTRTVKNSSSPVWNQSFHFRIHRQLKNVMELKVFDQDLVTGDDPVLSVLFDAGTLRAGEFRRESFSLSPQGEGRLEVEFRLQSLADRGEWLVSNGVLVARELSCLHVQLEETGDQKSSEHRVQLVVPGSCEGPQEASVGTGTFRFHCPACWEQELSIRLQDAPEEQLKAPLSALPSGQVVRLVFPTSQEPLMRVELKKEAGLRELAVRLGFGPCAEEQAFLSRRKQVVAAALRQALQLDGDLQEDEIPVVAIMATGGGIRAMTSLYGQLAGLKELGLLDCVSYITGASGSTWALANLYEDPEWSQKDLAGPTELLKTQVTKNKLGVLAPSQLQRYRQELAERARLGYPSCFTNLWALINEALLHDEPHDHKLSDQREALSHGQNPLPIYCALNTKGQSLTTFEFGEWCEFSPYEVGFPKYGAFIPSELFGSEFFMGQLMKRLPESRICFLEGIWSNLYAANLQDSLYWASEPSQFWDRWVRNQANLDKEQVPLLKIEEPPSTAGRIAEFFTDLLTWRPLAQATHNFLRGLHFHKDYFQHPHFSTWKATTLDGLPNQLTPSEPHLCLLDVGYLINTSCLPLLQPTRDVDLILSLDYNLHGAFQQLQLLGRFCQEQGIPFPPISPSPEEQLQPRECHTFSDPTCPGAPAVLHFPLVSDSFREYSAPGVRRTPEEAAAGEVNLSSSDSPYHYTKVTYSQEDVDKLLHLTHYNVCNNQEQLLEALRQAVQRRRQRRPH
UniProt P27986, whole entry, looked up: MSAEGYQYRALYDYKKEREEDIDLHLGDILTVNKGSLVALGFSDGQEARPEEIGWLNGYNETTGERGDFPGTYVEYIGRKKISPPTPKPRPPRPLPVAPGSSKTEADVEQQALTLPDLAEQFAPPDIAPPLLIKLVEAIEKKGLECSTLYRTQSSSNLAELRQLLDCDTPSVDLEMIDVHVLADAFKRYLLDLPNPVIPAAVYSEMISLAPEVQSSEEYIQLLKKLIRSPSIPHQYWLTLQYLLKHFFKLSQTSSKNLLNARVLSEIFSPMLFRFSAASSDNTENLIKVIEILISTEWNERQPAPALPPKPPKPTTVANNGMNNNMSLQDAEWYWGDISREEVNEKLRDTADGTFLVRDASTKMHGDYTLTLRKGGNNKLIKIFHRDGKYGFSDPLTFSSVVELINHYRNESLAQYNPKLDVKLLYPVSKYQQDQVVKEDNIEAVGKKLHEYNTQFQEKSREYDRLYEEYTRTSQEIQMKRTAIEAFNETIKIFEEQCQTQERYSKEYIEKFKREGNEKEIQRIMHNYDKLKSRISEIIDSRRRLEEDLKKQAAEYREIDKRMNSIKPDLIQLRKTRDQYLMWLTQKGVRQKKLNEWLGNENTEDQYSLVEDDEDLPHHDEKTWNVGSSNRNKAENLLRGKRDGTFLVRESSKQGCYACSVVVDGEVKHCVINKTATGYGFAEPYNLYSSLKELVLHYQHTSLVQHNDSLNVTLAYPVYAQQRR
UniProt Q9BTU6: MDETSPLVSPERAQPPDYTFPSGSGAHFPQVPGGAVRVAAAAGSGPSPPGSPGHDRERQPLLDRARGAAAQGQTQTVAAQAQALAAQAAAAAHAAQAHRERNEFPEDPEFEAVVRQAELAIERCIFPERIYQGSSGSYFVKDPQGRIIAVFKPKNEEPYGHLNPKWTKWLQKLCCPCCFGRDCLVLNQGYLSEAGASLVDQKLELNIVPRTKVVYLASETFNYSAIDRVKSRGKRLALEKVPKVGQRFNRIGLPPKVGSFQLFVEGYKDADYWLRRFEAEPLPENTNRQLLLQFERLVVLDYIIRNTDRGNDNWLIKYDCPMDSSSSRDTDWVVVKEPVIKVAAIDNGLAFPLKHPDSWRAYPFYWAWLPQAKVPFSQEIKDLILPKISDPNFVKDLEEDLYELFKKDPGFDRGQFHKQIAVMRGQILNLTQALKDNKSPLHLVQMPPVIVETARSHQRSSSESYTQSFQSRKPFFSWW
UniProt O43175: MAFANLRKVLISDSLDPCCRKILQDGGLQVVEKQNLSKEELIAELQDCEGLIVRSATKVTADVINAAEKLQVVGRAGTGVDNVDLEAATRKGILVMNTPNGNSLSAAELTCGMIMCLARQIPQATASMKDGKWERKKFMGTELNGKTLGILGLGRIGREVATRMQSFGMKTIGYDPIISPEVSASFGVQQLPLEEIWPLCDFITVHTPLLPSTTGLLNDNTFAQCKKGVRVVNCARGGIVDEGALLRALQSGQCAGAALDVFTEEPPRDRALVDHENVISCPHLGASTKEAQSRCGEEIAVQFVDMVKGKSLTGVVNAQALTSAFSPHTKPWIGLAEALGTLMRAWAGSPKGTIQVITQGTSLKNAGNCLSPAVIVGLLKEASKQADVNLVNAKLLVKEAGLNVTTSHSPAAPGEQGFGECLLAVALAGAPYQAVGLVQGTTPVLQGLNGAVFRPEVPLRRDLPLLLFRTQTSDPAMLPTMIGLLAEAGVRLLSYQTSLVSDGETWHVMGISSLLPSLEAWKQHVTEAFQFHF
UniProt Q8TCG2: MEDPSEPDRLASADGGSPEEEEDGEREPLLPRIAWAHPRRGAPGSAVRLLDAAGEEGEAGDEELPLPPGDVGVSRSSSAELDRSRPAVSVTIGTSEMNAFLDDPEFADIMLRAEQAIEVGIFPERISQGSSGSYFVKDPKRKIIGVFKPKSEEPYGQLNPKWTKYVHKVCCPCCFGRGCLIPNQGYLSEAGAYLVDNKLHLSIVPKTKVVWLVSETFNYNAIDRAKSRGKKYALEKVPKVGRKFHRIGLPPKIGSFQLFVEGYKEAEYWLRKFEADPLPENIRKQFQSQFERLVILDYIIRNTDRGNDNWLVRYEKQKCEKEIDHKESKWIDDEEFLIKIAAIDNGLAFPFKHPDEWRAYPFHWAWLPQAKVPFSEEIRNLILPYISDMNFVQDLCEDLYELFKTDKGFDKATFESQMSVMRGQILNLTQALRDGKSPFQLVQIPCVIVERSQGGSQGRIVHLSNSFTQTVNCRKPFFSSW
UniProt Q9NRX4: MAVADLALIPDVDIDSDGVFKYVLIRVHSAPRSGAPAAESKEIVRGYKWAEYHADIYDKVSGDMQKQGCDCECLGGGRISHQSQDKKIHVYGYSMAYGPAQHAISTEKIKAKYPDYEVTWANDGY
UniProt Q16816: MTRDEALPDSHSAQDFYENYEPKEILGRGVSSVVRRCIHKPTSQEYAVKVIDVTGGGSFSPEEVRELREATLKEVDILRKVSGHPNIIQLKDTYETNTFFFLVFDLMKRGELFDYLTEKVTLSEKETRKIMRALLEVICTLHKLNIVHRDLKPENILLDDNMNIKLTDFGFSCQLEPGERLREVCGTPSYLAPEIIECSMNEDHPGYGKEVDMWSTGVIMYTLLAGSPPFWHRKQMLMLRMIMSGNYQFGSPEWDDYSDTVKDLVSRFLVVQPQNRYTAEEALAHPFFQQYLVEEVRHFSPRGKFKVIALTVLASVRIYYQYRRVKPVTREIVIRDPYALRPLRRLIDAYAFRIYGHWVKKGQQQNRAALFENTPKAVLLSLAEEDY
UniProt O00459, whole entry, looked up: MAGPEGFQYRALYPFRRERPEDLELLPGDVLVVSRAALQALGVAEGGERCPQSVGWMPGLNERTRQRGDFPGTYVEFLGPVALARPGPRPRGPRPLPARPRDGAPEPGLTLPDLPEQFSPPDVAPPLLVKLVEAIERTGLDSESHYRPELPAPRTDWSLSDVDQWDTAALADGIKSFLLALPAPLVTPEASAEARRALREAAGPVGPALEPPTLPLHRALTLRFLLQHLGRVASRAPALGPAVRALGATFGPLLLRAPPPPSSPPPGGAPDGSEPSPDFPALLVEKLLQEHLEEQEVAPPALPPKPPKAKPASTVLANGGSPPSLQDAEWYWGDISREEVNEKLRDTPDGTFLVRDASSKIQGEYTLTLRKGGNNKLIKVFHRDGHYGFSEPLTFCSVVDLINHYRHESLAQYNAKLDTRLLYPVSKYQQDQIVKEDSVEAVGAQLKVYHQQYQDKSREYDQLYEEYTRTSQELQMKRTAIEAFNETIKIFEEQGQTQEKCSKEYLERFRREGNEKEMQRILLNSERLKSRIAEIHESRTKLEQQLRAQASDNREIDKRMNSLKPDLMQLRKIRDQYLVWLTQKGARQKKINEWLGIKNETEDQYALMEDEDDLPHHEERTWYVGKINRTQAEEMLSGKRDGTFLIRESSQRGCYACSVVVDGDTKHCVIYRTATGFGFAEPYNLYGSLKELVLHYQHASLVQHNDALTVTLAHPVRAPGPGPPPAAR
UniProt Q16513: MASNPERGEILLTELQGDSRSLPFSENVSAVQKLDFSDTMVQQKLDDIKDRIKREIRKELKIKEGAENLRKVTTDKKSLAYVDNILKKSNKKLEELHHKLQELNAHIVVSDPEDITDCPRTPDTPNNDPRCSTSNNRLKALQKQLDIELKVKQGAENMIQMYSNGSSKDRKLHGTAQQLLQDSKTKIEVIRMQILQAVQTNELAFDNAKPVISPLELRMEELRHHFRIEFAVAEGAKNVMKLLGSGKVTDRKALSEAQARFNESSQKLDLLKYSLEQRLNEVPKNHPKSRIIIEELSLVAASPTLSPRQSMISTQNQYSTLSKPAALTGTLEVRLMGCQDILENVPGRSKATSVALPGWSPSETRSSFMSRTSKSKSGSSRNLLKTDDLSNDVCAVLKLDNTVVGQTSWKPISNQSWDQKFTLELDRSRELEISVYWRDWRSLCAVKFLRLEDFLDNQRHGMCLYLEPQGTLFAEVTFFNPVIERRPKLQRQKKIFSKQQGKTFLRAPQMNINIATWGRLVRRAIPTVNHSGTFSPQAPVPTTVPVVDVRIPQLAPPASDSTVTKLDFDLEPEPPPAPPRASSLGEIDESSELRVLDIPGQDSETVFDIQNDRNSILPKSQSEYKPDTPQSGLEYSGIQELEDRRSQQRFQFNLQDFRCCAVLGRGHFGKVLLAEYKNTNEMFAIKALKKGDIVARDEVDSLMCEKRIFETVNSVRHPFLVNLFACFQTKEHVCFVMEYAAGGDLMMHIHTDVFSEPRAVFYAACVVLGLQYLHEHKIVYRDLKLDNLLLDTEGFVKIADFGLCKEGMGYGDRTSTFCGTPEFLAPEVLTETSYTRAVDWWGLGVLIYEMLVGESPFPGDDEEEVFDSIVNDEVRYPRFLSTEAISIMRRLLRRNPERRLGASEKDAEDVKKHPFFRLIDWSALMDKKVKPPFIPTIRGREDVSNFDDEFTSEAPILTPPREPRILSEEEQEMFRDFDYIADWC

Tests used:
Experiment in all cases: log2 fold change, soluble protein after heating vs DMSO (PISA); higher = thermal stabilisation; K562 lysate, 10 uM; active = over 0.2 and 3.5 SD of the protein, either way, in both replicates (recomputed)
lapatinib = compound: CS(=O)(=O)CCNCc1ccc(-c2ccc3ncnc(Nc4ccc(OCc5cccc(F)c5)c(Cl)c4)c3c2)o1 [lapatinib]
Method in brief: (§1)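 K562 pellets were dounce-homogenised in PBS pH 7.4 with 1 mM MgCl2, and the crude extract at 1 mg/mL protein was treated with 10 μM compound for 30 min. Aliquots were heated for 3 min across 48°C-58°C, pooled, and brought to 0.5% NP-40 at 4°C; soluble protein was the supernatant after 21,000xg for 90 min. Soluble protein was quantified by TMTpro 16plex LC-MS/MS with channel sums equalised, and reported as log2 fold change in thermal stability against DMSO controls, with values from duplicates.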

pictilisib = compound: CS(=O)(=O)N1CCN(Cc2cc3nc(-c4cccc5[nH]ncc45)nc(N4CCOCC4)c3s2)CC1 [pictilisib]
Method in brief: as §1

crizotinib = compound: C[C@@H](Oc1cc(-c2cnn(C3CCNCC3)c2)cnc1N)c1c(Cl)ccc(F)c1Cl [crizotinib]
Method in brief: as §1

[1] = compound: C[C@H](C1=CC=C(C=C1)C(=O)NC2=C3C=CNC3=NC=C2)N
Method in brief: as §1

duvelisib = compound: C[C@H](Nc1ncnc2nc[nH]c12)c1cc2cccc(Cl)c2c(=O)n1-c1ccccc1 [duvelisib]
Method in brief: as §1

gandotinib = compound: Cc1cc(Nc2cc(CN3CCOCC3)c3nc(C)c(Cc4ccc(Cl)cc4F)n3n2)n[nH]1 [gandotinib]
Method in brief: as §1

tozasertib = compound: Cc1cc(Nc2cc(N3CCN(C)CC3)nc(Sc3ccc(NC(=O)C4CC4)cc3)n2)n[nH]1 [tozasertib]
Method in brief: as §1

doramapimod = compound: Cc1ccc(-n2nc(C(C)(C)C)cc2NC(=O)Nc2ccc(OCCN3CCOCC3)c3ccccc23)cc1 [doramapimod]
Method in brief: as §1

bafetinib = compound: Cc1ccc(NC(=O)c2ccc(CN3CC[C@H](N(C)C)C3)c(C(F)(F)F)c2)cc1Nc1nccc(-c2cncnc2)n1 [bafetinib]
Method in brief: as §1

[2] = compound: Cc1cccc(CC(=O)N2CCc3c2ccc(-c2cn(C)c4ncnc(N)c24)c3F)n1
Method in brief: as §1

Measured: log2 fold change

PGPEP1 (UniProt Q9NXJ5)
inactive: lapatinib 0.023 | pictilisib -0.013 | crizotinib 0.011 | [1] -0.025 | duvelisib 0.057 | gandotinib -0.029 | tozasertib 0.03 | doramapimod 0.045 | bafetinib -0.013 | [2] -0.019

PHACTR4 isoform 2 (UniProt Q8IZ21)
active: [1] 0.764
inactive: lapatinib -0.015 | pictilisib -0.014 | crizotinib -0.005 | duvelisib 0 | gandotinib -0.121 | tozasertib -0.03 | doramapimod -0.003 | bafetinib 0.022 | [2] -0.196

PLCB2 (UniProt Q00722)
inactive: lapatinib 0.037 | pictilisib 0.032 | crizotinib -0.015 | [1] -0.052 | duvelisib -0.048 | gandotinib -0.005 | tozasertib 0.09 | doramapimod -0.022 | bafetinib -0.08 | [2] -0.051

PGGT1B (UniProt P53609)
inactive: lapatinib 0.013 | pictilisib -0.012 | crizotinib 0.01 | [1] 0.013 | duvelisib -0.019 | gandotinib -0.158 | tozasertib 0.083 | doramapimod 0.047 | bafetinib 0.076 | [2] -0.074

PKNOX1 (UniProt P55347)
inactive: lapatinib 0.007 | pictilisib 0.132 | crizotinib -0.004 | [1] 0.023 | duvelisib -0.007 | gandotinib -0.005 | tozasertib -0.073 | doramapimod -0.017 | bafetinib -0.02 | [2] 0.041

PLA2G4B isoform 6 (UniProt P0C869)
inactive: lapatinib -0.001 | pictilisib -0.032 | crizotinib -0.49 | [1] -0.015 | duvelisib -0.038 | gandotinib 0.069 | tozasertib -0.009 | doramapimod 0 | bafetinib -0.133 | [2] 0.086

PHB (UniProt P35232)
inactive: lapatinib 0.028 | pictilisib 0.032 | crizotinib 0.023 | [1] 0.024 | duvelisib 0.099 | gandotinib -0.047 | tozasertib 0.054 | doramapimod 0.012 | bafetinib 0.013 | [2] -0.01

Two records picked at random from the list so far:
PLA2G4B isoform 6 (UniProt P0C869)
inactive: lapatinib -0.001 | pictilisib -0.032 | crizotinib -0.49 | [1] -0.015 | duvelisib -0.038 | gandotinib 0.069 | tozasertib -0.009 | doramapimod 0 | bafetinib -0.133 | [2] 0.086

PKNOX1 (UniProt P55347)
inactive: lapatinib 0.007 | pictilisib 0.132 | crizotinib -0.004 | [1] 0.023 | duvelisib -0.007 | gandotinib -0.005 | tozasertib -0.073 | doramapimod -0.017 | bafetinib -0.02 | [2] 0.041

The results go on:

PIGK (UniProt Q92643)
inactive: lapatinib -0.095 | pictilisib -0.002 | crizotinib -0.049 | [1] -0.086 | duvelisib 0.062 | gandotinib 0.018 | tozasertib 0.038 | doramapimod -0.006 | bafetinib -0.013 | [2] 0.121

PLA2G15 (UniProt Q8NCC3)
inactive: lapatinib -0.018 | pictilisib -0.018 | crizotinib -0.025 | [1] -0.047 | duvelisib 0.021 | gandotinib 0.049 | tozasertib -0.024 | doramapimod -0.063 | bafetinib -0.051 | [2] 0.048

PIK3CB (UniProt P42338)
active: pictilisib 0.497 | duvelisib 0.645
inactive: lapatinib -0.007 | crizotinib -0.068 | [1] 0.022 | gandotinib 0.096 | tozasertib 0.017 | doramapimod -0.006 | bafetinib -0.034 | [2] 0.012

PIK3R1 (UniProt P27986)
active: duvelisib 0.534
inactive: lapatinib 0.002 | pictilisib 0.374 | crizotinib -0.015 | [1] 0.033 | gandotinib 0.171 | tozasertib 0.039 | doramapimod -0.02 | bafetinib 0.007 | [2] -0.011

PHF23 (UniProt Q9BUL5)
inactive: lapatinib 0.016 | pictilisib -0.061 | crizotinib 0.042 | [1] 0.055 | duvelisib 0.02 | gandotinib 0.004 | tozasertib 0.117 | doramapimod -0.006 | bafetinib 0.012 | [2] -0.006

PITPNB isoform 3 (UniProt P48739)
inactive: lapatinib 0.013 | pictilisib 0.005 | crizotinib 0.023 | [1] -0.017 | duvelisib -0.006 | gandotinib 0.006 | tozasertib -0.007 | doramapimod -0.024 | bafetinib -0.054 | [2] 0.011

PI4K2A (UniProt Q9BTU6)
inactive: lapatinib -0.02 | pictilisib -0.036 | crizotinib 0.003 | [1] -0.006 | duvelisib 0.054 | gandotinib -0.03 | tozasertib -0.025 | doramapimod -0.008 | bafetinib 0.008 | [2] 0.014

PHGDH (UniProt O43175)
inactive: lapatinib -0.053 | pictilisib 0.005 | crizotinib 0 | [1] 0.076 | duvelisib 0 | gandotinib -0.071 | tozasertib 0.019 | doramapimod -0.039 | bafetinib 0.032 | [2] -0.055

PLCL1 (UniProt Q15111)
inactive: lapatinib -0.014 | pictilisib -0.044 | crizotinib -0.06 | [1] -0.01 | duvelisib 0.049 | gandotinib -0.017 | tozasertib -0.019 | doramapimod 0.014 | bafetinib 0.049 | [2] 0.043

PI4K2B (UniProt Q8TCG2)
inactive: lapatinib 0.009 | pictilisib 0.039 | crizotinib -0.203 | [1] 0.134 | duvelisib 0.143 | gandotinib 0.041 | tozasertib 0.019 | doramapimod -0.026 | bafetinib -0.017 | [2] 0.003

PIR (UniProt O00625)
inactive: lapatinib 0.017 | pictilisib -0.05 | crizotinib 0.019 | [1] 0.099 | duvelisib -0.035 | gandotinib -0.058 | tozasertib -0.008 | doramapimod -0.021 | bafetinib 0.008 | [2] -0.006

PHPT1 (UniProt Q9NRX4)
inactive: lapatinib -0.011 | pictilisib 0.003 | crizotinib 0.048 | [1] 0.044 | duvelisib -0.013 | gandotinib -0.026 | tozasertib 0.029 | doramapimod 0.017 | bafetinib 0.02 | [2] -0.063

PHF14 (UniProt O94880)
inactive: lapatinib 0.199 | pictilisib -0.049 | duvelisib 0.024 | tozasertib -0.117 | bafetinib -0.013

PIGQ (UniProt Q9BRB3)
inactive: lapatinib -0.114 | pictilisib -0.106 | crizotinib -0.064 | [1] -0.056 | gandotinib 0.153 | tozasertib -0.136 | doramapimod 0.119 | bafetinib -0.239 | [2] 0.013

PHKG1 isoform 2 (UniProt Q16816)
inactive: lapatinib -0.166 | crizotinib 0.305 | [1] -0.553 | duvelisib -0.042 | gandotinib 0.655 | tozasertib -0.172 | doramapimod 0.038 | [2] 0.216

PHAX (UniProt Q9H814)
inactive: lapatinib 0.009 | pictilisib -0.02 | crizotinib -0.001 | [1] -0.034 | duvelisib 0.034 | gandotinib 0.08 | tozasertib 0.002 | doramapimod 0.037 | bafetinib -0.004 | [2] -0.017

PIBF1 (UniProt Q8WXW3)
inactive: lapatinib 0.089 | pictilisib -0.014 | crizotinib 0.002 | [1] -0.078 | duvelisib 0.001 | gandotinib -0.012 | tozasertib 0.07 | doramapimod -0.007 | bafetinib 0.025 | [2] 0.118

PIK3R2 (UniProt O00459)
active: pictilisib 0.318 | duvelisib 0.322
inactive: lapatinib -0.009 | crizotinib -0.018 | [1] 0.009 | gandotinib 0.043 | tozasertib 0.009 | doramapimod 0.014 | bafetinib -0.004 | [2] -0.016

PKN2 (UniProt Q16513)
inactive: lapatinib 0.005 | pictilisib -0.018 | crizotinib -0.116 | [1] -0.096 | duvelisib -0.012 | gandotinib -0.033 | doramapimod 0.036 | bafetinib -0.091 | [2] 0.119
